Drawing on PMC12120717, this text covers binding for one molecule.

The assay concerns the target T1, ubiquitin‐like protein with plant homeodomain and ring finger domains 1 (UHRF1) (human) (UniProt Q96T88).
T1 sequence: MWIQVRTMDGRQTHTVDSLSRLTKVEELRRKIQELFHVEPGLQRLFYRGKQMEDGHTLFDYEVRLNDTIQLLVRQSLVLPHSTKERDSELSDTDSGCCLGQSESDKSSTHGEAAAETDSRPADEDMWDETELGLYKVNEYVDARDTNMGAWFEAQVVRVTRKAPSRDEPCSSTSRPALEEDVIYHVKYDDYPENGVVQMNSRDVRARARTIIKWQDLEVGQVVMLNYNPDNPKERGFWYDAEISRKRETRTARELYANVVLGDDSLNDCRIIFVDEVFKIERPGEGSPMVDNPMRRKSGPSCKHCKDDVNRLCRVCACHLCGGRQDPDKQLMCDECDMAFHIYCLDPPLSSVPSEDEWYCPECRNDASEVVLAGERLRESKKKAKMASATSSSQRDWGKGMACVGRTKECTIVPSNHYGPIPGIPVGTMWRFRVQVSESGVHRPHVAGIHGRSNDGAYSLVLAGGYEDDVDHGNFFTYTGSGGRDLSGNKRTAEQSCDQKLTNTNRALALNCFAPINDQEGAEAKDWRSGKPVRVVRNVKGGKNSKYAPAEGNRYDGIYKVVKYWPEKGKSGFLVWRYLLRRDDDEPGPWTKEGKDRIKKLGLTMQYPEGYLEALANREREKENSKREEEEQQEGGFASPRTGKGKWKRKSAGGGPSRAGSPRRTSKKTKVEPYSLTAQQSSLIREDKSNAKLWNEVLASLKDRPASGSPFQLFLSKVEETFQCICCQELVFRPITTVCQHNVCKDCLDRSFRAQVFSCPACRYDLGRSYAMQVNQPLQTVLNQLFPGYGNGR
As to the kind of experiment: co-IP; immunoprecipitation by a previously described protocol (ref. 47); cells, precipitating antibody and bait not stated; for DNMT1/DNMT3A also after UHRF1 knockdown.

These are yes or no findings as the source states them, for the method shown. In cells and extracts the contact can be indirect. Some entries that bind do so weakly or less than the wild type.

B1: LHX1 (protein, UniProt P48742 1-406)
chain: MVHCAGCKRPILDRFLLNVLDRAWHVKCVQCCECKCNLTEKCFSREGKLYCKNDFFRCFGTKCAGCAQGISPSDLVRRARSKVFHLNCFTCMMCNKQLSTGEELYIIDENKFVCKEDYLSNSSVAKENSLHSATTGSDPSLSPDSQDPSQDDAKDSESANVSDKEAGSNENDDQNLGAKRRGPRTTIKAKQLETLKAAFAATPKPTRHIREQLAQETGLNMRVIQVWFQNRRSKERRMKQLSALGARRHAFFRSPRRMRPLVDRLEPGELIPNGPFSFYGDYQSEYYGPGGNYDFFPQGPPSSQAQTPVDLPFVPSSGPSGTPLGGLEHPLPGHHPSSEAQRFTDILAHPPGDSPSPEPSLPGPLHSMSAEVFGPSPPFSSLSVNGGASYGNHLSHPPEMNEAAVW
As for B1, the binding entry is recorded as “binds”.
